# Some results were stated once for a whole list of compounds, not compound by compound.
# Assay: Determination of the in-vitro SPF on PMMA plates (Labsphere UV-200S, Colipa method)
# Type: physicochemical
# Conditions: sunscreen product, cosmetic or pharmaceutical preparation or homecare product; amount not stated
# Method: Determination of the in-vitro SPFs and UVA-PF
# The SPF boosting and UVA-PF boosting test is carried out as in-vitro determination of SPFs.
# Principle: The formulation to be tested (emulsion, solution) is weighed on PMMA plates with the help of an analytical balance. The formulation if distributed and incorporated on the plate using a method corresponding to the formulation. The thus prepared plates are then measured on a Labsphere device and the results are calculated as SPF with a suitable software.
# PMMA plates (Polymethylmethacrylate), measuring 3 cm×8.5 cm (WVVW5 plates based on […] “Determination of UVA photoprotection in vitro” with 5μ roughness by Schonberg GmbH & Co. AG) are used to perform an SPF measurement.
# A reference sample is obtained by distributing 25 to 28 mg glycerin (99.5%) with the index finger on the roughened side of the PMMA plate. […]
# The reference plate is measured with the following transmission values:
# The sample to be measured should be homogeneously mixed with a spatula before application. […]
# Sun oils: The product quantity is generally 1.3 mg/cm^2. […]
# The finished sample plates are stored dust-free and measured at the earliest after 15 minutes.
# The samples are measured using the UV-200S device, using the specified Colipa method. […]
# At the beginning of the measurement, a blank value of the glycerin reference sample is measured (“scan blank plate”). […]
compound,measurement,value
"COc1ccc(/N=C2\CCCC(NCC(=O)O)=C2C)cc1OC [MAA-27, 2-[(3-(3,4-dimethoxyphenyl)imino-2-methyl-cyclohexen-1-yl)amino]acetic acid]",increase in SPF compared to the product without the mycosporine-like amino acid compound,at least 10%

# Source: patent US20260034042A1, “Composition with Improved SPF and UVA Photoprotection” (Symrise AG, priority 2022, published 2026)
